# For part of these data: The comparison behind a weaker result is the experiment's own reference, which may not be listed here. For part of these data: Construct, isoform or probe ends are uncertain for at least one entry.
# Sequences of proteins named here, by UniProt entry; tags and fusion partners are left off. A change or cut given only in a name is not applied to a line headed by its entry.
# UniProt P00971: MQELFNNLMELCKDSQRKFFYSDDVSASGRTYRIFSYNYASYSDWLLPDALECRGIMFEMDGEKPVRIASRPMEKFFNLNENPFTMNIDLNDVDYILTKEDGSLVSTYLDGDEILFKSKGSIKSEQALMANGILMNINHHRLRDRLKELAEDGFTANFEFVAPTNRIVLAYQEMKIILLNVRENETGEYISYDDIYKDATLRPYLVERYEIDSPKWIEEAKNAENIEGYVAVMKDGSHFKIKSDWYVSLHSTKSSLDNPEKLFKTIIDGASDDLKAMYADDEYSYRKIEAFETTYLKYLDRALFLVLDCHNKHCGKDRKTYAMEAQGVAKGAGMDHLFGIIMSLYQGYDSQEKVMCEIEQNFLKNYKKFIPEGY
# Columns and labels:
# [1] = target: T4 RNA ligase 1 (Rnl1) (Enterobacteria phage T4) (UniProt P00971); assay: activity assay; settings: ligation to miR-106b from 293T small RNA; only adapter of 12 capturing it well; deep sequencing readout; ATP buffer; purified recombinant protein
# [2] = target: T4 RNA ligase 2, truncated (Rnl2) (Enterobacteria phage T4) (UniProt P32277); assay: activity assay; settings: 3' adapter DNA with 5' rAPP and 3' ddC, gel-shift ligation assay, ATP-free buffer, purified recombinant protein, label: 5' 32P on RNA
sequence,measurement,setting,value
ACACUCUUUCCCUACACGACGCUCUUCCGAUCAGCA [5' adapter ending AGCA],activity on this sequence,[1],active
CGUACGGUUUAAACUUCGA / CTGTAGGCACCATCAAT [19-mer RNA marker + standard 3' adapter],activity on this sequence,[2]; efficient ligation,active
CGUACGGUUUAAACUUCGAAAUGU / CTGTAGGCACCATCAAT [24-mer RNA marker + standard 3' adapter],activity on this sequence,"[2]; ligated product low in abundance, variant of 19-mer RNA marker + standard 3' adapter",less active
